Reference: the supplement of paper PMC10849652
The list shows a part of the results.

Protein sequences, listed by entry. Tags and fused reporters are not part of them. Lines headed by an entry give the natural chain unless they say otherwise; changes in a name come on top.
UniProt Q14517: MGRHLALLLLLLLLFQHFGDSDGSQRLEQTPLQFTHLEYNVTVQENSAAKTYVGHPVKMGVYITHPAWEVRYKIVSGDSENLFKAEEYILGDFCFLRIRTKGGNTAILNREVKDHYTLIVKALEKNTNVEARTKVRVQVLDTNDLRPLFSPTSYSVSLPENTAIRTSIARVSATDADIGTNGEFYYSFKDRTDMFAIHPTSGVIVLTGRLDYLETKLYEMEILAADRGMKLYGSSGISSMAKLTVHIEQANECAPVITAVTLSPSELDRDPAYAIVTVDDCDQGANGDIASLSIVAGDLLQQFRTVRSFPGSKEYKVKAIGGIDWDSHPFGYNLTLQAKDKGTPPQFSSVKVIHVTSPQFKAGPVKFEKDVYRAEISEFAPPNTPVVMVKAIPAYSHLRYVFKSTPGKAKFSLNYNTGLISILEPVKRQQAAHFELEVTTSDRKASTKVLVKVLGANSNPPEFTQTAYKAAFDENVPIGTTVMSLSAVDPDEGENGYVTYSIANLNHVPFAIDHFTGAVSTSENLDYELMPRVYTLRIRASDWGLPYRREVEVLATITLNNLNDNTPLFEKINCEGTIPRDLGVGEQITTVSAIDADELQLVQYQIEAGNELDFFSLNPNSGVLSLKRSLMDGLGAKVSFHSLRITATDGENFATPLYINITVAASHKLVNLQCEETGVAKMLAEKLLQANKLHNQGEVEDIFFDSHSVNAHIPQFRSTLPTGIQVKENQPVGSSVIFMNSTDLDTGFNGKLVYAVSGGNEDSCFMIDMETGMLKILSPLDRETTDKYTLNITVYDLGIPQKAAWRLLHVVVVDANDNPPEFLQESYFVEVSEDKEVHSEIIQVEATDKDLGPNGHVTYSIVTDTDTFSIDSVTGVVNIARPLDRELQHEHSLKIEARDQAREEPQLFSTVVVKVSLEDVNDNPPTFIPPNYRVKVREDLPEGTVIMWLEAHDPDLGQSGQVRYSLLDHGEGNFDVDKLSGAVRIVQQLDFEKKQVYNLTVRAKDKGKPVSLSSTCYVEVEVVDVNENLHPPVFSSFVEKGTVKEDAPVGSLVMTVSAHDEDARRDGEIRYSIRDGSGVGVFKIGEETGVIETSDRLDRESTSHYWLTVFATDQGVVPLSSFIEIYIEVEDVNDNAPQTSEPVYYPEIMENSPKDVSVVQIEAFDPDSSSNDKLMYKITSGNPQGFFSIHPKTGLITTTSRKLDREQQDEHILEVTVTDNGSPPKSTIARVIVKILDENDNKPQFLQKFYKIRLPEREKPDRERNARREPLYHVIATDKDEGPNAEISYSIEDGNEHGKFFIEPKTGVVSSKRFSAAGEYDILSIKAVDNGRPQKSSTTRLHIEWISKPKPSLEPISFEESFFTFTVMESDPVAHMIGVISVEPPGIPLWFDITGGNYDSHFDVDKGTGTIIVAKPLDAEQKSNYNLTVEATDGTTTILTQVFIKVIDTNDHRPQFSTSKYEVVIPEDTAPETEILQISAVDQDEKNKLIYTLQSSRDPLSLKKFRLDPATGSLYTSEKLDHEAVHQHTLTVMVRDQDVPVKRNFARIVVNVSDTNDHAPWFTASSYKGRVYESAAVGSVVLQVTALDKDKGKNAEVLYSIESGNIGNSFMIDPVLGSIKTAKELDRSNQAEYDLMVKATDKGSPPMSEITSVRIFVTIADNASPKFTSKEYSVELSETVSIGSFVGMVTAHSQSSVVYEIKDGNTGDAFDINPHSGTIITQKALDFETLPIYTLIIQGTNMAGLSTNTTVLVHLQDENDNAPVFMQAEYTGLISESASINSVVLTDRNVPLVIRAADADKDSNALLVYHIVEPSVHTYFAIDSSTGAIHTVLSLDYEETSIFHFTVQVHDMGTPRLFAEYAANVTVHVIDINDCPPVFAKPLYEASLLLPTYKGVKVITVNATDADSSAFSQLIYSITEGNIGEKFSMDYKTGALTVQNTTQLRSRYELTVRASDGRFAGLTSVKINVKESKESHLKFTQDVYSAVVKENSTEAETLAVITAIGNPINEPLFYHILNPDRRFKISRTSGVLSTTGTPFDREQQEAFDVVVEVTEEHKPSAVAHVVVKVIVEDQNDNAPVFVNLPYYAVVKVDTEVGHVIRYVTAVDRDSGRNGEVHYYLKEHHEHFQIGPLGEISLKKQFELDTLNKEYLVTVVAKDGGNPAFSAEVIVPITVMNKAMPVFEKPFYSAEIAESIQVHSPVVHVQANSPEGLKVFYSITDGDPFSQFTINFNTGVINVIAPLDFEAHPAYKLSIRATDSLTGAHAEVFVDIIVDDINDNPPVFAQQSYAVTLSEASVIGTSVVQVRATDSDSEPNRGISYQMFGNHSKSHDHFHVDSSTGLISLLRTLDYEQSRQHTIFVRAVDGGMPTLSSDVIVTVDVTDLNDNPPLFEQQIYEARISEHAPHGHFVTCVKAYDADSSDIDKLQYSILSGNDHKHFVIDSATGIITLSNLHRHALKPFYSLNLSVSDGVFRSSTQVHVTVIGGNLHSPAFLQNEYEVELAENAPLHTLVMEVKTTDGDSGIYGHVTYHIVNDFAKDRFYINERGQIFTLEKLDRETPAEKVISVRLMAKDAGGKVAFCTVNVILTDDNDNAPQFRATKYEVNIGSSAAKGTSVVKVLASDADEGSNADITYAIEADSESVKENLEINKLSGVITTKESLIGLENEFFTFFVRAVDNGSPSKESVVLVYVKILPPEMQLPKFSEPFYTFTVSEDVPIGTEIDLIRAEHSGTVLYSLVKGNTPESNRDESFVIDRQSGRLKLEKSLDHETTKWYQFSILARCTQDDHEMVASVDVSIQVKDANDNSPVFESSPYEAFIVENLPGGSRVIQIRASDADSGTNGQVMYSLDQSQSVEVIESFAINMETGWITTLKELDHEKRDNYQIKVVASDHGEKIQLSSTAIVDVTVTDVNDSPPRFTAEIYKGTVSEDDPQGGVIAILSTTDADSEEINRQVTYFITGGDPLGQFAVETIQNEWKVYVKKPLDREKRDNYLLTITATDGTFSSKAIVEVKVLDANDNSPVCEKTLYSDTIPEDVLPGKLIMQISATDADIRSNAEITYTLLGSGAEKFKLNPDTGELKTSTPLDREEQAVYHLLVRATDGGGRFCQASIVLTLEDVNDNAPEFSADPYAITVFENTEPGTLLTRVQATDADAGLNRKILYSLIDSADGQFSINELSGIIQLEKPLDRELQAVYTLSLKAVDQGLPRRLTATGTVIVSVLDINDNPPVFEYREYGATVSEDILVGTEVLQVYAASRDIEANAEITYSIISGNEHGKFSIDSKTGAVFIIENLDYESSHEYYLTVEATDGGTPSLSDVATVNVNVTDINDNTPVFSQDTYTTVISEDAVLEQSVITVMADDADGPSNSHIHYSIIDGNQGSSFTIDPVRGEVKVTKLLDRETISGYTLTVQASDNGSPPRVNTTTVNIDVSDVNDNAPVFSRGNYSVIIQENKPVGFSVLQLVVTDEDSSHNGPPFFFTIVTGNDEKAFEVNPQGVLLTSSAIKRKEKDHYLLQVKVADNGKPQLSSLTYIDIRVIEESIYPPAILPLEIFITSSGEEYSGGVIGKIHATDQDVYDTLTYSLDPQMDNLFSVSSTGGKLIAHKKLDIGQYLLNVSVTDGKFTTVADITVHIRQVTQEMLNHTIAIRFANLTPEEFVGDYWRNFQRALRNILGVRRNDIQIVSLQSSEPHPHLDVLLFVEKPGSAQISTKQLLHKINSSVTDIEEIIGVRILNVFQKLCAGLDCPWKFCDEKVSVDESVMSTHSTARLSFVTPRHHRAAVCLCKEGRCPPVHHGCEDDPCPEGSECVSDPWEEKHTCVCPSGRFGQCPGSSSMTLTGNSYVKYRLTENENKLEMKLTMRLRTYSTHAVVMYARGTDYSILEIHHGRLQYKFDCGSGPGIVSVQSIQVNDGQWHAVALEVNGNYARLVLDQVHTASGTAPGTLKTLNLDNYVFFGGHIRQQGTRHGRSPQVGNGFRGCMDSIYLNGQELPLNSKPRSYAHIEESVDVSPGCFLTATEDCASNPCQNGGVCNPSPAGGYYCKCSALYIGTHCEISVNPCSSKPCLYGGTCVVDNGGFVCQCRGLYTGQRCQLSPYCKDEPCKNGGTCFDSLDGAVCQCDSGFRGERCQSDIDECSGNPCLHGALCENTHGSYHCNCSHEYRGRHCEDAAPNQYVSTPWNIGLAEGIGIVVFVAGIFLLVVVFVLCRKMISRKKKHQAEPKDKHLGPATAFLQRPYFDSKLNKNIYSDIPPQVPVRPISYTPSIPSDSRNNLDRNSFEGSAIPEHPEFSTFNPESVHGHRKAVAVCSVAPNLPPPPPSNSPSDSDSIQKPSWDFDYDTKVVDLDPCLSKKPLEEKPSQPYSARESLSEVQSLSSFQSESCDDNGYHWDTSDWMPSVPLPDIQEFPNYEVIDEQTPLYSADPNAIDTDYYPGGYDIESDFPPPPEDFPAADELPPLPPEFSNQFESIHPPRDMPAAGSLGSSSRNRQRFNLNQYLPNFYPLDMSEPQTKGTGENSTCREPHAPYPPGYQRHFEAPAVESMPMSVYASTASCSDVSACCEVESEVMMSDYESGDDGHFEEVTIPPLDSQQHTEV
UniProt Q6PCT2: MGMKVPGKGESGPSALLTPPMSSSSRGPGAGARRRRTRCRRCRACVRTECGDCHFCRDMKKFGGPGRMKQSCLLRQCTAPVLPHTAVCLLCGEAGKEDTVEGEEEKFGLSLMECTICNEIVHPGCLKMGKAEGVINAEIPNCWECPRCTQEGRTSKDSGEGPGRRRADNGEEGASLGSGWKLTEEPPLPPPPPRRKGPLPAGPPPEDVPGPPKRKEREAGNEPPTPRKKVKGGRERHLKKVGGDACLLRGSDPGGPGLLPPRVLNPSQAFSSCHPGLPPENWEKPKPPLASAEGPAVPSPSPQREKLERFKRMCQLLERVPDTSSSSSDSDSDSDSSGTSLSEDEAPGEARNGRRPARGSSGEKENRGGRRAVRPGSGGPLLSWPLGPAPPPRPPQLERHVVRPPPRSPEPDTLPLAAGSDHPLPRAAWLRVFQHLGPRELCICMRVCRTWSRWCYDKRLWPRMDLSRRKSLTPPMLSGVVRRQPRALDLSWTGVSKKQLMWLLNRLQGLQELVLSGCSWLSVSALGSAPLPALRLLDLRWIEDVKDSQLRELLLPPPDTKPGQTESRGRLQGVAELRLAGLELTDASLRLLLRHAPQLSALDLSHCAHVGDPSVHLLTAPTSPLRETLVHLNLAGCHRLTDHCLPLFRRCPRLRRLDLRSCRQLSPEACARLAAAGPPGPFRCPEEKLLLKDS
UniProt Q13045: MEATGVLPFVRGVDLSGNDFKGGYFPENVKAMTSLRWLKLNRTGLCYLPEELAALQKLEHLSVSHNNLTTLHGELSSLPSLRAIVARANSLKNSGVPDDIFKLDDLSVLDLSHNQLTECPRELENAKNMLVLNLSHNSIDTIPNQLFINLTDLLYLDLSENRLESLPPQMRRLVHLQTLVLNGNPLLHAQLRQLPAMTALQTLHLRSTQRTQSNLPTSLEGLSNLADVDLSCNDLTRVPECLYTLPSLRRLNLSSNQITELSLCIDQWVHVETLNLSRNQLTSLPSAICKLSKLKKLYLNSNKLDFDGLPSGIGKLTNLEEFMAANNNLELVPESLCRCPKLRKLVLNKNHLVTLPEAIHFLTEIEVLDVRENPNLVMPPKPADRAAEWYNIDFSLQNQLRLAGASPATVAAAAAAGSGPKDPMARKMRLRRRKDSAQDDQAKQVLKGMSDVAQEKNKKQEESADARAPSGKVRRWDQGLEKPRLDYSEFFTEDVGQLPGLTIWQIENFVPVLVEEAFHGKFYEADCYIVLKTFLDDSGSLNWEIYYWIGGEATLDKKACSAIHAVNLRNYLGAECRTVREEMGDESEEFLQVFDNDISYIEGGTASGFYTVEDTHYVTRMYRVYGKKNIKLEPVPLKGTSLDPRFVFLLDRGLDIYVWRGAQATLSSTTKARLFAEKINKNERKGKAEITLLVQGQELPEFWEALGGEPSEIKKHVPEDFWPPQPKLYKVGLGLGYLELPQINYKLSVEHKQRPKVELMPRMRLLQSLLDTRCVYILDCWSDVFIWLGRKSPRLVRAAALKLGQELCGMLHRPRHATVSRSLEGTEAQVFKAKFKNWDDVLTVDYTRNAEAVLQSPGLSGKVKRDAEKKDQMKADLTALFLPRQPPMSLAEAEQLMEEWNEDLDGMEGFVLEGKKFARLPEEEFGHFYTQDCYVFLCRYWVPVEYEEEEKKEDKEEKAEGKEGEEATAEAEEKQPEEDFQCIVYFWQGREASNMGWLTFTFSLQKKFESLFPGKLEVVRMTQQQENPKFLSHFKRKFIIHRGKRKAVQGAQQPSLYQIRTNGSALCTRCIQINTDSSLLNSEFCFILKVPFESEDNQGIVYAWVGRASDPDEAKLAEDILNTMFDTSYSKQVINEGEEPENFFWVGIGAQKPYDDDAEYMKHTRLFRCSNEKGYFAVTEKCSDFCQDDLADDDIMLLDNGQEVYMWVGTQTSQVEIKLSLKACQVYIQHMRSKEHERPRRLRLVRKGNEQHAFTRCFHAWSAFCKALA

How the values were obtained:
Test in all cases: log2 fold change, soluble protein after heating vs DMSO (PISA); higher = thermal stabilisation; K562 lysate, 10 uM; active = over 0.2 and 3.5 SD of the protein, either way, in both replicates (recomputed)
lapatinib = compound: CS(=O)(=O)CCNCc1ccc(-c2ccc3ncnc(Nc4ccc(OCc5cccc(F)c5)c(Cl)c4)c3c2)o1 [lapatinib]
Method in brief: (§1)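 K562 pellets were dounce-homogenised in PBS pH 7.4 containing 1 mM MgCl2, and the crude extract, at 1 mg/mL protein, was exposed to 10 μM compound for 30 min. Aliquots were heated for 3 min across 48°C-58°C, pooled, brought to 0.5% NP-40 at 4°C and spun at 21,000xg for 90 min, with the supernatant taken as soluble protein. TMTpro 16plex LC-MS/MS with equalised channel sums quantified that protein. Values are log-two fold changes in thermal stability relative to solvent controls, taken from duplicates.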

pictilisib = compound: CS(=O)(=O)N1CCN(Cc2cc3nc(-c4cccc5[nH]ncc45)nc(N4CCOCC4)c3s2)CC1 [pictilisib]
Method in brief: as §1

crizotinib = compound: C[C@@H](Oc1cc(-c2cnn(C3CCNCC3)c2)cnc1N)c1c(Cl)ccc(F)c1Cl [crizotinib]
Method in brief: as §1

[1] = compound: C[C@H](C1=CC=C(C=C1)C(=O)NC2=C3C=CNC3=NC=C2)N
Method in brief: as §1

duvelisib = compound: C[C@H](Nc1ncnc2nc[nH]c12)c1cc2cccc(Cl)c2c(=O)n1-c1ccccc1 [duvelisib]
Method in brief: as §1

gandotinib = compound: Cc1cc(Nc2cc(CN3CCOCC3)c3nc(C)c(Cc4ccc(Cl)cc4F)n3n2)n[nH]1 [gandotinib]
Method in brief: as §1

tozasertib = compound: Cc1cc(Nc2cc(N3CCN(C)CC3)nc(Sc3ccc(NC(=O)C4CC4)cc3)n2)n[nH]1 [tozasertib]
Method in brief: as §1

doramapimod = compound: Cc1ccc(-n2nc(C(C)(C)C)cc2NC(=O)Nc2ccc(OCCN3CCOCC3)c3ccccc23)cc1 [doramapimod]
Method in brief: as §1

bafetinib = compound: Cc1ccc(NC(=O)c2ccc(CN3CC[C@H](N(C)C)C3)c(C(F)(F)F)c2)cc1Nc1nccc(-c2cncnc2)n1 [bafetinib]
Method in brief: as §1

[2] = compound: Cc1cccc(CC(=O)N2CCc3c2ccc(-c2cn(C)c4ncnc(N)c24)c3F)n1
Method in brief: as §1

nilotinib = compound: Cc1cn(-c2cc(NC(=O)c3ccc(C)c(Nc4nccc(-c5cccnc5)n4)c3)cc(C(F)(F)F)c2)cn1 [nilotinib]
Method in brief: as §1

[3] = compound: Cc1nc(Nc2n[nH]c3c2CN(C(=O)N[C@H](CN(C)C)c2ccccc2)C3(C)C)c2sccc2n1
Method in brief: as §1

dasatinib = compound: Cc1nc(Nc2ncc(C(=O)Nc3c(C)cccc3Cl)s2)cc(N2CCN(CCO)CC2)n1 [dasatinib]
Method in brief: as §1

[4] = compound: Cc1ncc(-c2ccnc(Nc3ccc(S(C)(=O)=O)cc3)n2)n1C(C)C
Method in brief: as §1

[5] = compound: Cn1cc(-c2ccc3c(c2)CCN3C(=O)Cc2cccc(C(F)(F)F)c2)c2c(N)ncnc21
Method in brief: as §1

quisinostat = compound: Cn1cc(CNCC2CCN(c3ncc(C(=O)NO)cn3)CC2)c2ccccc21 [quisinostat]
Method in brief: as §1

tipifarnib = compound: Cn1cncc1[C@@](N)(c1ccc(Cl)cc1)c1ccc2c(c1)c(-c1cccc(Cl)c1)cc(=O)n2C [tipifarnib]
Method in brief: as §1

[6] = compound: NC(=O)Nc1cc(-c2cccc(F)c2)sc1C(=O)N[C@H]1CCCNC1
Method in brief: as §1

[7] = compound: NC(=O)c1cnc(N[C@@H]2CCCC[C@@H]2N)nc1Nc1cccc(-n2nccn2)c1
Method in brief: as §1

[8] = compound: NC1(c2ccc(-c3nc4ccn5c(=O)[nH]nc5c4cc3-c3ccccc3)cc2)CCC1
Method in brief: as §1

Measured: log2 fold change

FKBP7 (UniProt Q9Y680)
inactive: lapatinib -0.011 | pictilisib -0.029 | crizotinib 0.019 | [1] 0.084 | duvelisib 0.018 | gandotinib 0.001 | tozasertib 0.058 | doramapimod 0.031 | bafetinib 0.171 | [2] -0.028 | nilotinib -0.005 | [3] 0.018 | dasatinib -0.01 | [4] 0.074 | [5] -0.038 | quisinostat -0.045 | tipifarnib 0.13 | [6] 0.024 | [7] 0.039 | [8] -0.019

FITM2 (UniProt Q8N6M3)
inactive: lapatinib -0.06 | pictilisib -0.005 | bafetinib -0.144 | nilotinib -0.272 | [3] -0.255 | [4] 0.39 | tipifarnib 0.211 | [7] 0.055

FAT1 (UniProt Q14517)
active: quisinostat 0.572
inactive: lapatinib -0.129 | crizotinib -0.109 | [1] 0.079 | gandotinib 0.027 | tozasertib -0.139 | doramapimod 0.475 | [2] 0.072 | [6] -0.105 | [7] -0.017 | [8] -0.071

FBXO45 (UniProt P0C2W1)
inactive: lapatinib -0.067 | pictilisib -0.034 | crizotinib -0.123 | [1] -0.081 | gandotinib -0.031 | tozasertib 0.115 | doramapimod 0.017 | bafetinib -0.272 | [2] 0.091 | nilotinib 0.025 | [3] 0.028 | [4] -0.088 | quisinostat -0.006 | tipifarnib -0.011 | [6] 0.008 | [7] 0.147 | [8] -0.002

FLT4 (UniProt P35916)
inactive: lapatinib -0.007 | pictilisib 0.057 | [1] -0.173 | duvelisib 0.026 | gandotinib 0.019 | tozasertib -0.056 | bafetinib -0.035 | [2] -0.041 | dasatinib -0.202 | [5] 0.013 | [7] 0.162 | [8] 0.106

FAXDC2 (UniProt Q96IV6)
inactive: lapatinib 0.04 | crizotinib -0.016 | [1] 0.004 | duvelisib -0.034 | gandotinib -0.033 | tozasertib 0.098 | doramapimod 0.014 | [2] 0.201 | dasatinib 0.002 | [5] 0.08 | quisinostat -0.129 | [6] 0.055 | [7] 0.225 | [8] 0.129

FMNL3 (UniProt Q8IVF7)
inactive: lapatinib 0.073 | pictilisib 0.105 | bafetinib -0.15 | [7] -0.031

FMR1 isoform 9 (UniProt Q06787)
inactive: lapatinib 0.018 | pictilisib -0.209 | crizotinib -0.001 | duvelisib 0.065 | doramapimod -0.107 | bafetinib 0.532 | dasatinib 0.146 | [5] -0.013 | quisinostat 0.206 | [6] -0.065 | [7] -0.119 | [8] 0.15

FARS2 (UniProt O95363)
inactive: lapatinib -0.268 | pictilisib -0.099 | crizotinib 0.017 | [1] -0.031 | gandotinib 0.03 | tozasertib -0.042 | doramapimod 0.129 | bafetinib 0.023 | [2] 0.066 | nilotinib 0.383 | [3] -0.228 | [4] -0.226 | quisinostat 0.021 | tipifarnib 0.151 | [6] -0.002 | [7] 0.126 | [8] 0.012

FANCE (UniProt Q9HB96)
inactive: lapatinib 0.087 | crizotinib -0.059 | [1] -0.129 | duvelisib 0.029 | gandotinib -0.314 | doramapimod -0.046 | [2] 0.067 | nilotinib 0.036 | [3] -0.061 | dasatinib -0.037 | [4] -0.057 | [5] -0.025 | quisinostat -0.04 | tipifarnib 0.062 | [6] 0.043 | [7] -0.011

FNBP4 isoform 2 (UniProt Q8N3X1)
inactive: lapatinib 0.01 | pictilisib -0.005 | crizotinib 0.022 | [1] 0.014 | duvelisib 0.029 | gandotinib 0.05 | tozasertib -0.023 | doramapimod -0.001 | bafetinib 0.004 | [2] -0.001 | nilotinib -0.006 | [3] 0.011 | dasatinib -0.006 | [4] 0.004 | [5] 0.011 | quisinostat -0.07 | tipifarnib -0.025 | [6] -0.019 | [7] 0.023 | [8] 0.019

FEN1 (UniProt I3L3E9)
inactive: lapatinib 0.01 | [1] -0.021 | gandotinib -0.212 | tozasertib 0.128 | [2] -0.038 | nilotinib -0.144 | [3] -0.043 | [4] 0.083 | tipifarnib -0.105 | [7] 0.117

FANCF (UniProt Q9NPI8)
inactive: crizotinib -0.076 | [1] 0.226 | gandotinib -0.543 | doramapimod 0.097 | [2] -0.367 | quisinostat -0.013 | [6] 0.3

FASTKD1 (UniProt Q53R41)
inactive: crizotinib -0.226 | [1] -0.028 | duvelisib 0.026 | gandotinib 0.014 | tozasertib -0.011 | doramapimod -0.061 | [2] 0.065 | nilotinib -0.08 | [3] 0.06 | dasatinib -0.035 | [4] 0.016 | [5] 0.031 | quisinostat -0.166 | tipifarnib -0.044 | [6] 0.018 | [8] 0.011

FBXW2 (UniProt Q9UKT8)
inactive: pictilisib -0.034 | crizotinib 0.035 | [1] -0.001 | duvelisib 0.075 | gandotinib -0.069 | doramapimod 0.074 | bafetinib -0.021 | [2] -0.026 | dasatinib 0.216 | [5] 0.016 | quisinostat -0.101 | [6] 0.048

FBXO28 (UniProt Q9NVF7)
inactive: lapatinib 0.004 | [7] 0.061

FLNA (UniProt H0Y5C6)
inactive: lapatinib 0.127 | duvelisib -0.08 | dasatinib 0.212 | [5] 0.069 | [7] 0.11 | [8] -0.005

FBXL19 (UniProt Q6PCT2)
inactive: crizotinib 0.097 | doramapimod 0.195 | quisinostat -0.027 | [6] 0.118 | [8] 0.13

FMR1NB (UniProt Q8N0W7)
inactive: crizotinib 0.047 | doramapimod -0.141 | quisinostat -0.352 | [6] 0.106

FBRS (UniProt J3KNZ9)
inactive: pictilisib -0.07 | crizotinib -0.05 | [1] 0.02 | duvelisib -0.043 | gandotinib -0.057 | tozasertib 0.087 | doramapimod -0.044 | bafetinib 0.123 | [2] 0.008 | nilotinib -0.047 | [3] 0.032 | dasatinib -0.024 | [4] -0.091 | [5] 0.081 | quisinostat -0.078 | tipifarnib -0.049 | [6] 0.097 | [8] 0.025

FEM1A (UniProt Q9BSK4)
inactive: lapatinib -0.098 | tozasertib 0.274 | nilotinib -0.218 | [3] -0.141 | [4] 0.058 | tipifarnib 0.019 | [7] -0.058 | [8] 0.044

FBLN1 (UniProt P23142)
inactive: pictilisib -0.02 | crizotinib 0.006 | [1] -0.083 | gandotinib 0.169 | doramapimod 0.057 | bafetinib -0.009 | [2] 0.213 | nilotinib 0.05 | [3] -0.13 | [4] 0.055 | quisinostat 0.01 | tipifarnib -0.132 | [6] -0.13

FNDC3A (UniProt Q9Y2H6)
inactive: crizotinib 0.036 | gandotinib 0.42 | doramapimod 0.143 | [2] 0.126 | nilotinib -0.057 | [3] -0.125 | [4] -0.293 | quisinostat -0.247 | tipifarnib -0.064 | [6] 0.059 | [8] -0.03
active: [1] -0.808

FDPS, A0A087WVN4
inactive: lapatinib -0.207 | [7] 0.023

FEM1C (UniProt Q96JP0)
inactive: duvelisib 0.059 | dasatinib -0.162 | [5] 0.016

FOXJ2 (UniProt Q9P0K8)
inactive: pictilisib 0.043 | [1] -0.037 | duvelisib 0.039 | gandotinib 0.044 | tozasertib 0.127 | bafetinib -0.224 | [2] 0.056 | nilotinib 0.033 | [3] 0.29 | dasatinib 0.056 | [4] 0.077 | [5] 0.018 | tipifarnib -0.293 | [8] -0.111

2 successive records out of the list so far, for reference:
FNDC3A (UniProt Q9Y2H6)
inactive: crizotinib 0.036 | gandotinib 0.42 | doramapimod 0.143 | [2] 0.126 | nilotinib -0.057 | [3] -0.125 | [4] -0.293 | quisinostat -0.247 | tipifarnib -0.064 | [6] 0.059 | [8] -0.03
active: [1] -0.808

FDPS, A0A087WVN4
inactive: lapatinib -0.207 | [7] 0.023

Next part

FASN, A0A0U1RRG3
inactive: lapatinib -0.444 | [7] 0.06

FLII isoform 2 (UniProt Q13045)
inactive: lapatinib -0.056 | tozasertib 0.008 | [7] 0.022

FARP1 isoform 2 (UniProt Q9Y4F1)
inactive: pictilisib -0.194 | crizotinib -0.026 | duvelisib 0.028 | tozasertib -0.024 | doramapimod 0.003 | bafetinib 0.056 | dasatinib -0.047 | [5] -0.034 | quisinostat 0.026 | [6] -0.006

FCF1 (UniProt Q9Y324)
inactive: crizotinib -0.195 | [1] -0.109 | duvelisib 0.051 | gandotinib -0.007 | doramapimod 0.008 | [2] -0.073 | nilotinib -0.275 | [3] -0.001 | dasatinib 0.01 | [4] 0.078 | [5] 0.113 | quisinostat 0.157 | tipifarnib 0.1 | [6] -0.233
